Paper PMC11177981
No constants are given. Whether binding was seen depends on the method and setting. In cells and extracts the contact can be indirect. Some results given as binding are weak or reduced against the parent protein; the word gives no strength. Sequences can lack the tags named with a protein.

Legend:
[1] = target: T1, FLAG-MDA5 full length (FL) (UniProt Q9BYX4); assay: co-IP; HEK293T cells transfected with FLAG-tagged RIG-I or MDA5 constructs and Myc-tagged GLUT4; anti-FLAG magnetic beads on lysate (2% DDM, 25mM HEPES, 150mM NaCl)
T1 sequence: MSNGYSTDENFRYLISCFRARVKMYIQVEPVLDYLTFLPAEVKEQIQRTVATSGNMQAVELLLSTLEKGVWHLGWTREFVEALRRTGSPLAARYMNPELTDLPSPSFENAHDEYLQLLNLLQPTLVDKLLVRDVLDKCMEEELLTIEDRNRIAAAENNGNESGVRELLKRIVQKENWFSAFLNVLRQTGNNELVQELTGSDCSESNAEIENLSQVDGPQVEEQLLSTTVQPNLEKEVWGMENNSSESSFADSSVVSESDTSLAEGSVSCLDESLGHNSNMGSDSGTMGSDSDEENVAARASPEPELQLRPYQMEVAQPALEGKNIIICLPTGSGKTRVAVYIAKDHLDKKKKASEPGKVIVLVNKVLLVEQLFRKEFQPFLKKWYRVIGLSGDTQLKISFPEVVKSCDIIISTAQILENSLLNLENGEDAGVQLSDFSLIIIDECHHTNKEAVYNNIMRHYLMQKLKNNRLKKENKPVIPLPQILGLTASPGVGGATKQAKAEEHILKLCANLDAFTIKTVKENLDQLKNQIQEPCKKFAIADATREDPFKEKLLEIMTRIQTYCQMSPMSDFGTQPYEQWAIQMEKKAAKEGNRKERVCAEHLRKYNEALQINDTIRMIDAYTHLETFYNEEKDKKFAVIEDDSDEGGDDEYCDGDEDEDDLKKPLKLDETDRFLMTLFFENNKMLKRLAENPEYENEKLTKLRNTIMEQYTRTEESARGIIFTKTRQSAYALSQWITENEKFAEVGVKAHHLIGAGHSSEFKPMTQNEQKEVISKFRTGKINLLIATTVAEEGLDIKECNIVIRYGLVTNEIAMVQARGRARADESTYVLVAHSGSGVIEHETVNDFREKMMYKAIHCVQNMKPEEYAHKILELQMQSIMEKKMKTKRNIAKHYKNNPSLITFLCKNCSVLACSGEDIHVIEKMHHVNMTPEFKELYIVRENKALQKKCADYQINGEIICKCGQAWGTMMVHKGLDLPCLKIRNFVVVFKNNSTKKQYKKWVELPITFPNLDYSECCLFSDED

[2] = target: T2, FLAG-RIG-I full length (FL) (human) (UniProt O95786); assay: as above
T2 sequence: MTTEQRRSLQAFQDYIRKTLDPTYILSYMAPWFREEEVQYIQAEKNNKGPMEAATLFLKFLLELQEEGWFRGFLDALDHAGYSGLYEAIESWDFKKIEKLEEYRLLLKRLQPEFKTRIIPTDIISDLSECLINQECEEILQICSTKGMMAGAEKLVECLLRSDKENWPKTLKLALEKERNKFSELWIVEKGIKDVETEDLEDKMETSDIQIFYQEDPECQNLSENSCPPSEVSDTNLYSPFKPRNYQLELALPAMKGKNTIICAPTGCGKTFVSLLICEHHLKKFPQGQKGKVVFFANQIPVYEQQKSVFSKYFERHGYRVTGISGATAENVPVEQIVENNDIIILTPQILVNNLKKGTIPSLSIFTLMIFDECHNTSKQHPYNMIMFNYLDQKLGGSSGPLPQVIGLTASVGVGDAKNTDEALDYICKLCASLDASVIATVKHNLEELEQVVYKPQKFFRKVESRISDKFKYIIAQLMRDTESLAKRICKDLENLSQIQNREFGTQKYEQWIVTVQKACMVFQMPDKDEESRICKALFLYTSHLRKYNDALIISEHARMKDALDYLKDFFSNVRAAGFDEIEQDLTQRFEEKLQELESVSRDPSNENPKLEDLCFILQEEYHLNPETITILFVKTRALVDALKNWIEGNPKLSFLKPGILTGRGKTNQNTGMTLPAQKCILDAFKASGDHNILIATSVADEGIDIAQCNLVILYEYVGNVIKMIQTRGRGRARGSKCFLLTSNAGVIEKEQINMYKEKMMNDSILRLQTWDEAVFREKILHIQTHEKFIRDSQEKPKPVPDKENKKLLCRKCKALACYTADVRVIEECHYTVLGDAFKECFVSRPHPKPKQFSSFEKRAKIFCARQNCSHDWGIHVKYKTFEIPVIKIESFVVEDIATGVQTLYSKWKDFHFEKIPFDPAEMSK

[3] = target: T3, FLAG-GLUT4 (human full length) expressed in C2C12 cells (human) (UniProt P14672); assay: co-IP
T3 sequence: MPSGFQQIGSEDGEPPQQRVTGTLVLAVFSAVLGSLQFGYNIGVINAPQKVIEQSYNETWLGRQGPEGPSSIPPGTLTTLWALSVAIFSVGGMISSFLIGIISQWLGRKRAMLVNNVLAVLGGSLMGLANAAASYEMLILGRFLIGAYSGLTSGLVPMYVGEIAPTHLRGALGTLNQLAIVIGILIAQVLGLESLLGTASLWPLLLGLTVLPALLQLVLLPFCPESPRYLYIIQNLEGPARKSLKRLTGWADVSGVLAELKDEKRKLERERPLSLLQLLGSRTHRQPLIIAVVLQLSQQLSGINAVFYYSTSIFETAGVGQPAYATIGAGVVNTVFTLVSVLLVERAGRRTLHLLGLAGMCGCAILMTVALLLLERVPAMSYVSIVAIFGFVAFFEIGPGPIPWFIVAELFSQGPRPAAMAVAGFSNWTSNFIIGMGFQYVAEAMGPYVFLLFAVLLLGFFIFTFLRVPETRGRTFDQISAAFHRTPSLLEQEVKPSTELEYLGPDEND

[4] = target: T4, FLAG-GLUT4 (human full length) expressed in HEK293T cells (human) (UniProt P14672); assay: co-IP; anti-FLAG magnetic beads on lysate (2% DDM, 25mM HEPES, 150mM NaCl) of HEK293T cells transfected with FLAG-GLUT4 constructs; blot for endogenous RIG-I and UBXN9; vector pcDNA3.1-FLAG as control
T4 sequence: T3 sequence

B1: GLUT4 (Myc-tagged) expressed in HEK293T cells (protein, UniProt P14672 1-509)
chain: T3 sequence
Question: For B1, which binding [1] is on record?
Answer: Its binding is “binds”.

Question: What about the binding [2] of the same binder?
Answer: Its binding is “binds”.

B2: retinoic acid inducible gene I (RIG-I), endogenous in C2C12 cells (protein, UniProt Q6Q899 1-926)
chain: MTAEQRQNLQAFRDYIKKILDPTYILSYMSSWLEDEEVQYIQAEKNNKGPMEAASLFLQYLLKLQSEGWFQAFLDALYHAGYCGLCEAIESWDFQKIEKLEEHRLLLRRLEPEFKATVDPNDILSELSECLINQECEEIRQIRDTKGRMAGAEKMAECLIRSDKENWPKVLQLALEKDNSKFSELWIVDKGFKRAESKADEDDGAEASSIQIFIQEEPECQNLSQNPGPPSEASSNNLHSPLKPRNYQLELALPAKKGKNTIICAPTGCGKTFVSLLICEHHLKKFPCGQKGKVVFFANQIPVYEQQATVFSRYFERLGYNIASISGATSDSVSVQHIIEDNDIIILTPQILVNNLNNGAIPSLSVFTLMIFDECHNTSKNHPYNQIMFRYLDHKLGESRDPLPQVVGLTASVGVGDAKTAEEAMQHICKLCAALDASVIATVRDNVAELEQVVYKPQKISRKVASRTSNTFKCIISQLMKETEKLAKDVSEELGKLFQIQNREFGTQKYEQWIVGVHKACSVFQMADKEEESRVCKALFLYTSHLRKYNDALIISEDAQMTDALNYLKAFFHDVREAAFDETERELTRRFEEKLEELEKVSRDPSNENPKLRDLYLVLQEEYHLKPETKTILFVKTRALVDALKKWIEENPALSFLKPGILTGRGRTNRATGMTLPAQKCVLEAFRASGDNNILIATSVADEGIDIAECNLVILYEYVGNVIKMIQTRGRGRARDSKCFLLTSSADVIEKEKANMIKEKIMNESILRLQTWDEMKFGKTVHRIQVNEKLLRDSQHKPQPVPDKENKKLLCGKCKNFACYTADIRVVETSHYTVLGDAFKERFVCKPHPKPKIYDNFEKKAKIFCAKQNCSHDWGIFVRYKTFEIPVIKIESFVVEDIVSGVQNRHSKWKDFHFERIQFDPAEMSV
Question: B2 was tested. Which binding [3] did it give?
Answer: The binding was “binds”.

B3: melanoma differentiation-associated protein 5 (MDA5), endogenous in C2C12 cells (protein, UniProt Q8R5F7 1-1025)
chain: MSIVCSAEDSFRNLILFFRPRLKMYIQVEPVLDHLIFLSAETKEQILKKINTCGNTSAAELLLSTLEQGQWPLGWTQMFVEALEHSGNPLAARYVKPTLTDLPSPSSETAHDECLHLLTLLQPTLVDKLLINDVLDTCFEKGLLTVEDRNRISAAGNSGNESGVRELLRRIVQKENWFSTFLDVLRQTGNDALFQELTGGGCPEDNTDLANSSHRDGPAANECLLPAVDESSLETEAWNVDDILPEASCTDSSVTTESDTSLAEGSVSCFDESLGHNSNMGRDSGTMGSDSDESVIQTKRVSPEPELQLRPYQMEVAQPALDGKNIIICLPTGSGKTRVAVYITKDHLDKKKQASESGKVIVLVNKVMLAEQLFRKEFNPYLKKWYRIIGLSGDTQLKISFPEVVKSYDVIISTAQILENSLLNLESGDDDGVQLSDFSLIIIDECHHTNKEAVYNNIMRRYLKQKLRNNDLKKQNKPAIPLPQILGLTASPGVGAAKKQSEAEKHILNICANLDAFTIKTVKENLGQLKHQIKEPCKKFVIADDTRENPFKEKLLEIMASIQTYCQKSPMSDFGTQHYEQWAIQMEKKAAKDGNRKDRVCAEHLRKYNEALQINDTIRMIDAYSHLETFYTDEKEKKFAVLNDSDKSDDEASSCNDQLKGDVKKSLKLDETDEFLMNLFFDNKKMLKKLAENPKYENEKLIKLRNTILEQFTRSEESSRGIIFTKTRQSTYALSQWIMENAKFAEVGVKAHHLIGAGHSSEVKPMTQTEQKEVISKFRTGEINLLIATTVAEEGLDIKECNIVIRYGLVTNEIAMVQARGRARADESTYVLVTSSGSGVTEREIVNDFREKMMYKAINRVQNMKPEEYAHKILELQVQSILEKKMKVKRSIAKQYNDNPSLITLLCKNCSMLVCSGENIHVIEKMHHVNMTPEFKGLYIVRENKALQKKFADYQTNGEIICKCGQAWGTMMVHKGLDLPCLKIRNFVVNFKNNSPKKQYKKWVELPIRFPDLDYSEYCLYSDED
Question: B3 was tested. Which binding [3] did it give?
Answer: The binding was “binds”.

B4: ubiquitin regulatory X domain 9 (UBXN9, TUG), endogenous in HEK293T cells (protein, UniProt Q9BZE9 1-553)
chain: MAAPAGGGGSAVSVLAPNGRRHTVKVTPSTVLLQVLEDTCRRQDFNPCEYDLKFQRSVLDLSLQWRFANLPNNAKLEMVPASRSREGPENMVRIALQLDDGSRLQDSFCSGQTLWELLSHFPQIRECLQHPGGATPVCVYTRDEVTGEAALRGTTLQSLGLTGGSATIRFVMKCYDPVGKTPGSLGSSASAGQAAASAPLPLESGELSRGDLSRPEDADTSGPCCEHTQEKQSTRAPAAAPFVPFSGGGQRLGGPPGPTRPLTSSSAKLPKSLSSPGGPSKPKKSKSGQDPQQEQEQERERDPQQEQERERPVDREPVDREPVVCHPDLEERLQAWPAELPDEFFELTVDDVRRRLAQLKSERKRLEEAPLVTKAFREAQIKEKLERYPKVALRVLFPDRYVLQGFFRPSETVGDLRDFVRSHLGNPELSFYLFITPPKTVLDDHTQTLFQANLFPAALVHLGAEEPAGVYLEPGLLEHAISPSAADVLVARYMSRAAGSPSPLPAPDPAPKSEPAAEEGALVPPEPIPGTAQPVKRSLGKVPKWLKLPASKR
Question: For B4, which binding [4] is on record?
Answer: Its binding is “binds”.
